# Measured values reported in PubChem BioAssay AID493014 (National Center for Advancing Translational Sciences (NCATS), 2011).
# This is one part of the list. The main result of the screen is listed elsewhere. These columns were measured beside it and carry no call. The list favours compounds with an active or inconclusive main result. The note in brackets gives the kind of curve behind each potency; many fits are weak.
# Assay: qHTS Assay to Find Inhibitors of Chronic Active B-Cell Receptor Signaling
# Conditions: ABC-DLBCL IkBa-CBG/CBR reporter, luminescence ratio (green luciferase fused to IkBa over red control in TMD8 lymphoma cells), 4 h
# How it was run: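 Doxycycline induced both beetle luciferases in TMD8 lymphoma cells; IKK-driven degradation limits the IkappaBalpha-fused green signal, while red luminescence normalises for cell number and nonspecific effects. Compounds tested up to 46 uM, 4 hrs.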
# [1] = measured here: CBR red luminescence, cell number
# [2] = measured here: IkBa-CBG green luminescence
Compound,AC50 [1],AC50 [2]
COCCn1nnnc1C(C(C)C)N1CCCC(C)C1 (stereo not drawn),"12.6 µM [rising, partial curve, poor fit]",–
CC(Sc1cccc[n+]1[O-])c1ccccc1 (stereo not drawn),"35.5 µM [falling, single point]","31.6 µM [falling, single point]"
O=C(O)c1ccccc1C(=O)NCC(O)c1ccccc1 (stereo not drawn),"3.16 µM [rising, full curve, poor fit]",–
Cc1ccc(CSC2=Nc3ccccc3C3=NC(CCC(=O)NCc4cccs4)C(=O)N23)c(C)c1 (stereo not drawn),"3.16 µM [rising, single point]",–
C=CCN1C(=O)[C@@H]2Cc3c([nH]c4ccccc34)C(c3ccc(O)cc3)N2C1=S (stereo partly drawn),"12.6 µM [falling, single point]",–
O=[N+]([O-])/C(C=Nc1ccccc1O)=C\Nc1ccccc1O,"11.2 µM [falling, single point]",–
Oc1ccccc1-c1cc(C(F)(F)C(F)F)[nH]n1,"18.4 µM [falling, single point]",–
C/C(=N\NC(=O)COc1c(C)cccc1C)c1cccs1,"6.31 µM [rising, full curve, poor fit]",–
COc1ccc(C(=O)Cc2ccc(F)cc2)c(OC)c1,"7.31 µM [rising, partial curve, poor fit]",–
CCC(C)NC(=O)c1ccc2c(c1)N(Cc1ccccc1)C(=O)CS2 (stereo not drawn),"35.5 µM [rising, single point]",–
CC(C)c1ccc(NC(=O)Cn2ncc3ccccc32)cc1,"2.82 µM [rising, full curve]",–
Cc1ccc(Nc2nc(CSc3nnc(-c4cccnc4)n3-c3ccccc3F)cs2)cc1,"29.1 µM [falling, single point]",–
CCC(=O)Nc1cccc(NC(=O)c2cc3ccccc3o2)c1,"7.08 µM [falling, partial curve]",–
CN(C)c1ccc(C(C[N+](=O)[O-])c2c(N)n(C)c(=O)n(C)c2=O)c(F)c1C#N (stereo not drawn),"6.31 µM [falling, full curve, poor fit]","20 µM [falling, partial curve, poor fit]"
Cc1cc(NC(=O)CSc2nc3cc(Cl)ccc3s2)no1,"20.6 µM [rising, partial curve, poor fit]",–
Cc1ccc(-n2[nH]c(C)c(C=Nc3cc(C)ccn3)c2=O)cc1,"11.6 µM [falling, partial curve, poor fit]",–
CC[n+]1c(/C=C2\C=C(C)CC(C)C2)sc2ccccc21 (stereo not drawn),"20 µM [falling, single point]",–
O=c1c2c(-c3cccc([N+](=O)[O-])c3)ccnc2[nH]n1-c1ccccc1,"2.51 µM [falling, full curve, poor fit]",–
O=C(CN(C(=O)CCC(=O)Nc1nccs1)c1ccccc1F)NCC1CCCO1 (stereo not drawn),"9.2 µM [falling, partial curve, poor fit]",–
CCN1CCCC1CNC(=O)c1cc2ccc(OC)cc2[nH]1 (stereo not drawn),"5.62 µM [falling, single point]",–
COc1ccc(C(=O)Nc2nc(C)c(C(=O)N(C)C)s2)cc1OC,"0.0184 µM [rising, full curve, poor fit]",–

# Single records, from the list above. Order of values: AC50 [1]	AC50 [2]
# Cc1ccc(-n2[nH]c(C)c(C=Nc3cc(C)ccn3)c2=O)cc1 in the list: 11.6 µM [falling, partial curve, poor fit]	–
# Cc1cc(NC(=O)CSc2nc3cc(Cl)ccc3s2)no1 in the list: 20.6 µM [rising, partial curve, poor fit]	–
# COc1ccc(C(=O)Cc2ccc(F)cc2)c(OC)c1 in the list: 7.31 µM [rising, partial curve, poor fit]	–

# Next results follow:

Compound,AC50 [1],AC50 [2]
CN1C(=O)C(CC(=O)Nc2ccc(Cl)cc2)N(Cc2ccco2)C1=S (stereo not drawn),–,"22.4 µM [falling, single point]"
CCOc1ccc(N2CC(C(=O)NCCCc3ccccc3)CC2=O)cc1 (stereo not drawn),"29.1 µM [rising, single point]",–
COCCN(C(=O)CN1CCc2ccccc21)c1c(N)n(Cc2ccccc2)c(=O)[nH]c1=O,"29.1 µM [rising, single point]",–
c1ccc(CCc2cc3ccccc3[nH]2)cc1,"0.231 µM [rising, full curve, poor fit]",–
CCC(=O)Nc1cccc(NC(=O)c2ccc3c(c2)OCCO3)c1,"7.31 µM [falling, partial curve]",–
O=C(Nc1ccc(Cl)c(Cl)c1)OCCNC(=O)c1ccncc1,"0.112 µM [rising, full curve, poor fit]",–
Cc1nc2scc(-c3ccc(C(C)(C)C)cc3)c2c(=O)n1N,"35.5 µM [rising, single point]",–
CC(=O)Nc1ccc(S(=O)(=O)NCCC(=O)OCC(=O)c2cccc(Br)c2)cc1,"29.1 µM [rising, single point]",–
CC1(C)CC(=O)C2=C(C1)N=C1SCCC(=O)N1C2c1cccc([N+](=O)[O-])c1 (stereo not drawn),"22.4 µM [falling, single point]",–
CCN(CC)C(=S)Nc1ccc(Cl)c(Cl)c1,"8.2 µM [rising, partial curve, poor fit]",–
Cc1ccc2c(n1)sc1c(-c3ccccc3)c(C#N)c(N)nc12,"0.112 µM [falling, full curve, poor fit]",–
Cn1cc(CC(=O)NCc2ccc(F)cc2)c2ccccc21,"22.4 µM [rising, single point]",–
Cc1cccc2nc(=S)n(C(=O)c3ccco3)n12,"0.206 µM [rising, partial curve, poor fit]",–
COc1ccc(OC)c(NC(=O)CSc2nnc(C3CCCCC3)o2)c1,"17.8 µM [falling, partial curve, poor fit]",–
COC(=O)c1ccc(OC)c(CSc2nnc(COc3ccc(Cl)cc3)o2)c1,"0.82 µM [falling, partial curve, poor fit]",–
COc1cc(C(=O)Nc2ccc(C)cn2)ccc1OCC(=O)N1CCOCC1,"6.51 µM [falling, partial curve, poor fit]",–
COc1ccccc1NC(=O)CCSCCC(=O)Nc1ccccc1OC,"20.6 µM [falling, single point]",–
Cc1ccn2cc(-c3cccc(NC(=O)CCC(=O)O)c3)nc2c1,"35.5 µM [falling, single point]",–
O=C(CN1CCN(S(=O)(=O)c2ccccc2)CC1)Nc1ccc(Cl)cn1,"7.08 µM [rising, full curve, poor fit]",–
COc1ccc(OC)c(C2=NOC(C(=O)N3CCCc4ccccc43)C2)c1 (stereo not drawn),"1.3 µM [rising, full curve, poor fit]",–
